For 5 molecules, binding results are on record in article PMC8120205.

Sequences of proteins named here, by UniProt entry; tags and fusion partners are left off.
UniProt O14744: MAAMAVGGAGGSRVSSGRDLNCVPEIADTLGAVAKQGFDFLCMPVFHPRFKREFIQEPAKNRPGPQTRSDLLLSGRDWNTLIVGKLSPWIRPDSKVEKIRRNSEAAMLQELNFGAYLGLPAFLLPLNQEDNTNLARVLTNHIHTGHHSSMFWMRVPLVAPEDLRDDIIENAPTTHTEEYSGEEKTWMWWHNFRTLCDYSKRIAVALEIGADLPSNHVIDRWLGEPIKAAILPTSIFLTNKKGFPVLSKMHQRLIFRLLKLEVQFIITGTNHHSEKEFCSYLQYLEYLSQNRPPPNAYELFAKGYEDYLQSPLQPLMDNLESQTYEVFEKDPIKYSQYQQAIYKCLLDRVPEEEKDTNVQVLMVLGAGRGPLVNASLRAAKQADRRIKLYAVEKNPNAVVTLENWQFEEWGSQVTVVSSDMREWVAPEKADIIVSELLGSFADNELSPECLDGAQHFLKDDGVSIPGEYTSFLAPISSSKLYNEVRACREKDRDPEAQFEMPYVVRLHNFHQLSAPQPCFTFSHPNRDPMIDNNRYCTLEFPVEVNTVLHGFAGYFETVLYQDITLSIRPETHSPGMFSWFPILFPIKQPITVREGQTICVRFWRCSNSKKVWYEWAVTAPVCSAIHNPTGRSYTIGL
UniProt Q9BQA1: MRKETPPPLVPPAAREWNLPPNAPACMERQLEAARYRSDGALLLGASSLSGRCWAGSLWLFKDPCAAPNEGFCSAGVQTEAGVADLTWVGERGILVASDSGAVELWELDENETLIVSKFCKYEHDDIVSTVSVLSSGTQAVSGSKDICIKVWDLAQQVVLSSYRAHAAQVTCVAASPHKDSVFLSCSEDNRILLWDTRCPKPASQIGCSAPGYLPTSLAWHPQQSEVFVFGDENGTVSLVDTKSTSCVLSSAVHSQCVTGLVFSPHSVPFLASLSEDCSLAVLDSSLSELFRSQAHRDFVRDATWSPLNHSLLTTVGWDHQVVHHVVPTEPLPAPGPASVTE

Results are given in words; binding and its absence hold for the method and conditions named. Binding seen in cells or lysates may run through a third protein. Some entries that bind do so weakly or less than the wild type.

Experiment [1] addresses T1, Endogenous MYOCD (A549) (human (endogenous in A549)) (UniProt Q8IZQ8).
T1 sequence: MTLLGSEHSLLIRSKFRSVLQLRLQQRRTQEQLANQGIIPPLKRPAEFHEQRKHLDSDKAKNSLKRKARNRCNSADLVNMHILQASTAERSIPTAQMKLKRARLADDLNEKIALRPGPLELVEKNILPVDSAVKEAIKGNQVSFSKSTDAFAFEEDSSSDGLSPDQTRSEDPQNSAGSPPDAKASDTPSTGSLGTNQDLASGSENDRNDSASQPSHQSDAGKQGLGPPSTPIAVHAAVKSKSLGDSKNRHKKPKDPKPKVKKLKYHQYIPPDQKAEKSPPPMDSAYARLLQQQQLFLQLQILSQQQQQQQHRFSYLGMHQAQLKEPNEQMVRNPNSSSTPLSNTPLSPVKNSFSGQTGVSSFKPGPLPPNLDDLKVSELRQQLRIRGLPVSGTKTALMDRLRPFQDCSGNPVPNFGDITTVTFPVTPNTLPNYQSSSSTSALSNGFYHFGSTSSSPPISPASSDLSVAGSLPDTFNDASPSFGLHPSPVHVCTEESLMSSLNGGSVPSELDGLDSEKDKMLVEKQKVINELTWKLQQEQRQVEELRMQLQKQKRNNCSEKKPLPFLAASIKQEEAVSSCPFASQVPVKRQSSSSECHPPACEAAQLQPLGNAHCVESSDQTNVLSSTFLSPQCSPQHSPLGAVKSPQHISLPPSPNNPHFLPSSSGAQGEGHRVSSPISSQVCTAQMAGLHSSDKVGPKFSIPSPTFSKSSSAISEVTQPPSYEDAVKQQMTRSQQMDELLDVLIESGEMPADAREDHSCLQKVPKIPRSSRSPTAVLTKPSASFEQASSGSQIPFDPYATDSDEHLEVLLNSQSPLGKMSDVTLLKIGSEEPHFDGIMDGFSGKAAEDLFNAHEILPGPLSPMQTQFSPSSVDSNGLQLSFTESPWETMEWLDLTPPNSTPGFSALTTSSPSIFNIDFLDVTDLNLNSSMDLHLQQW
The experiment can be described thus: co-IP; endogenous proteins; lysate from 5 × 10^7 A549 cells; immunoprecipitation with antibody against each of MYOCD, PRMT5 and MEP50, immunoblot. Background: Immunoblotting shows a protein as a band on a membrane.

Experiment [2] deals with T2, MYOCD (co-overexpressed from a plasmid) (UniProt Q8IZQ8).
T2 sequence: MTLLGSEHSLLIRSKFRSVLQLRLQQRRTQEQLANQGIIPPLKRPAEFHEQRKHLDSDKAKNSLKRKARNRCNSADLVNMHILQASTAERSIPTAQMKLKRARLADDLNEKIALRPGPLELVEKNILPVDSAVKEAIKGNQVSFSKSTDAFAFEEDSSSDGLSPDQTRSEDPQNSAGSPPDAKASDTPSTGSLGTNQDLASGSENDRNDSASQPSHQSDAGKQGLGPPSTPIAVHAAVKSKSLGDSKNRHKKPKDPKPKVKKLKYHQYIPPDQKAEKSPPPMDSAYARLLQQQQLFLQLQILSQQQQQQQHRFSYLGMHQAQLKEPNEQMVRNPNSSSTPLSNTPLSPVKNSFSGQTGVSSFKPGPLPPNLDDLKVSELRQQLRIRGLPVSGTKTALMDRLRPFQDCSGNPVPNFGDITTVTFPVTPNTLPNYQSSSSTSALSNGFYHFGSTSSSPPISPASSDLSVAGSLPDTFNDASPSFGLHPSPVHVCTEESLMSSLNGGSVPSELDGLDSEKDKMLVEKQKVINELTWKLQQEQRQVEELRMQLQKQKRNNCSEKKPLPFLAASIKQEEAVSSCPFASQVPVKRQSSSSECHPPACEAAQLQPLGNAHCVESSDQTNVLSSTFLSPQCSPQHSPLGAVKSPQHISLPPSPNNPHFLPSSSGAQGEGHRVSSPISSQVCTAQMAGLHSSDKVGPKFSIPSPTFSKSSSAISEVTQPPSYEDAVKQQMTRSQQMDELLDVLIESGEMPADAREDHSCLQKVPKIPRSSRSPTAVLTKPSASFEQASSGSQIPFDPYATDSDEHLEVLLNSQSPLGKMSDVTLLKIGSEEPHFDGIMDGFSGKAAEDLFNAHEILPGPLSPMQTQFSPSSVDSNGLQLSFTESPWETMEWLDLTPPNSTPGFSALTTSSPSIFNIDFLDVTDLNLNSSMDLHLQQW
The experiment in a line: co-IP; 293T cells (text: HEK293) transfected with the indicated plasmids (2.5 μg each); coimmunoprecipitation and immunoblot with the indicated antibodies.

Experiment [3] addresses Endogenous PRMT5 (A549) (human (endogenous in A549)) (UniProt O14744). The experiment in a line: co-IP; endogenous proteins; lysate from 5 × 10^7 A549 cells; immunoprecipitation with antibody against each of MYOCD, PRMT5 and MEP50, immunoblot.
Experiment [4] addresses Endogenous MEP50 (A549) (human (endogenous in A549)) (UniProt Q9BQA1). Described as above.

“Endogenous MEP50 (A549) (from UniProt Q9BQA1 1-342)”: in experiment [1], the binding result is reported as “binds”.

For “Endogenous PRMT5 (A549) (from UniProt O14744 1-637)”, the binding entry in experiment [1] was “binds”.

Consider “MEP50 (co-overexpressed from a plasmid) (from UniProt Q9BQA1 1-342)”, for which the binding entry in experiment [2] was “binds”.

Turning to “PRMT5 (co-overexpressed from a plasmid) (from UniProt O14744 1-637)”, the binding result in experiment [2] is given as “binds”.

B1: Endogenous MYOCD (A549) (protein, UniProt Q8IZQ8 1-938)
chain: MTLLGSEHSLLIRSKFRSVLQLRLQQRRTQEQLANQGIIPPLKRPAEFHEQRKHLDSDKAKNSLKRKARNRCNSADLVNMHILQASTAERSIPTAQMKLKRARLADDLNEKIALRPGPLELVEKNILPVDSAVKEAIKGNQVSFSKSTDAFAFEEDSSSDGLSPDQTRSEDPQNSAGSPPDAKASDTPSTGSLGTNQDLASGSENDRNDSASQPSHQSDAGKQGLGPPSTPIAVHAAVKSKSLGDSKNRHKKPKDPKPKVKKLKYHQYIPPDQKAEKSPPPMDSAYARLLQQQQLFLQLQILSQQQQQQQHRFSYLGMHQAQLKEPNEQMVRNPNSSSTPLSNTPLSPVKNSFSGQTGVSSFKPGPLPPNLDDLKVSELRQQLRIRGLPVSGTKTALMDRLRPFQDCSGNPVPNFGDITTVTFPVTPNTLPNYQSSSSTSALSNGFYHFGSTSSSPPISPASSDLSVAGSLPDTFNDASPSFGLHPSPVHVCTEESLMSSLNGGSVPSELDGLDSEKDKMLVEKQKVINELTWKLQQEQRQVEELRMQLQKQKRNNCSEKKPLPFLAASIKQEEAVSSCPFASQVPVKRQSSSSECHPPACEAAQLQPLGNAHCVESSDQTNVLSSTFLSPQCSPQHSPLGAVKSPQHISLPPSPNNPHFLPSSSGAQGEGHRVSSPISSQVCTAQMAGLHSSDKVGPKFSIPSPTFSKSSSAISEVTQPPSYEDAVKQQMTRSQQMDELLDVLIESGEMPADAREDHSCLQKVPKIPRSSRSPTAVLTKPSASFEQASSGSQIPFDPYATDSDEHLEVLLNSQSPLGKMSDVTLLKIGSEEPHFDGIMDGFSGKAAEDLFNAHEILPGPLSPMQTQFSPSSVDSNGLQLSFTESPWETMEWLDLTPPNSTPGFSALTTSSPSIFNIDFLDVTDLNLNSSMDLHLQQW
Turning to B1, the binding result in experiment [3] and in experiment [4] was “binds” throughout.
